The target in the assay is AKT1 (UniProt P31749). In words: co-immunoprecipitation (anti-Flag and anti-AKT) with immunoblot. On the technique in general: Immunoblotting shows a protein as a band on a membrane.

Amino acid sequences for entries named in this document (tags omitted).
UniProt P31749: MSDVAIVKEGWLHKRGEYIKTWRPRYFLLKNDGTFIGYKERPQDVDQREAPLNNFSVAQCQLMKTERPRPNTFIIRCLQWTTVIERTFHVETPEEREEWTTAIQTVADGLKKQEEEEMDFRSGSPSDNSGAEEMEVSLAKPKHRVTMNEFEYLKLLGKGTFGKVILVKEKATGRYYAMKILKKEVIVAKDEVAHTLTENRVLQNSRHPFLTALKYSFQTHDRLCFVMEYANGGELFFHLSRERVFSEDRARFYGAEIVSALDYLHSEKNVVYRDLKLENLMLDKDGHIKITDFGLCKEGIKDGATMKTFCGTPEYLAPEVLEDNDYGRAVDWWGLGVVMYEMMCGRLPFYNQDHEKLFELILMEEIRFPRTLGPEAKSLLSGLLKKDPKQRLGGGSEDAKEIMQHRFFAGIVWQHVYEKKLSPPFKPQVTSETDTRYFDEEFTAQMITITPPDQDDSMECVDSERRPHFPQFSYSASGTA

No constants are given. Whether binding was seen depends on the method and setting. In cells and extracts the contact can be indirect. Some results given as binding are weak or reduced against the parent protein; the word gives no strength. Sequences can lack the tags named with a protein.

B1: Flag-tagged thymidine kinase 1 (TK1) (enzyme, human, UniProt P04183 1-234, looked up)
chain: MSCINLPTVLPGSPSKTRGQIQVILGPMFSGKSTELMRRVRRFQIAQYKCLVIKYAKDTRYSSSFCTHDRNTMEALPACLLRDVAQEALGVAVIGIDEGQFFPDIVEFCEAMANAGKTVIVAALDGTFQRKPFGAILNLVPLAESVVKLTAVCMECFREAAYTKRLGTEKEVEVIGGADKYHSVCRLCYFKKASGQPAGPDNKENCPVPGKPGEAVAARKLFAPQQILQCSPAN
In the case of B1, the binding result is given as “binds”.

The record behind these values is US20110206689A1, “Molecular Determinants Associated With Prostate Cancer And Methods Of Use Thereof” (Dana-Farber Cancer Institute, Inc., priority 2010, published 2011).
